Literature values as cited in US10010535B2, “Desferrithiocin analogs and uses thereof” (University of Florida Research Foundation, Incorporated, priority 2013, dated 2018).
Some entries share one result that the patent states for a list of compounds.

Tested on: iron excretion
Settings: biliary ferrokinetics, po 150 μmol/kg; cited from earlier work

Structure (SMILES)	time at which deferration returned to baseline [h]
C[C@]1(C(=O)O)CSC(c2ncccc2O)=N1 [compound 1, desferrithiocin]	≤ 12
C[C@]1(C(=O)O)CSC(c2ccccc2O)=N1 [compound 2, desazadesferrithiocin]	≤ 12
